Experimental data: publication PMC8206348

Sequences of proteins named here, by UniProt entry; tags and fusion partners are left off.
UniProt Q9Y5U2: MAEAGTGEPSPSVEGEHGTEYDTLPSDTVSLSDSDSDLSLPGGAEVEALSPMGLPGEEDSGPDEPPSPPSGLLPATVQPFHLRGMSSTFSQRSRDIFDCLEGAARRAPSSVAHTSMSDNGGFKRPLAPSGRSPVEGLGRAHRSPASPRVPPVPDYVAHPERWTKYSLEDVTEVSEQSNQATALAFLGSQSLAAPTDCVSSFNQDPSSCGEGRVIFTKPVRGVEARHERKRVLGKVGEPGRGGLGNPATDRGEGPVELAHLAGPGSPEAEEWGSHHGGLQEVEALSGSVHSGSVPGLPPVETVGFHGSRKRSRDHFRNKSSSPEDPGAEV
UniProt Q9Y265: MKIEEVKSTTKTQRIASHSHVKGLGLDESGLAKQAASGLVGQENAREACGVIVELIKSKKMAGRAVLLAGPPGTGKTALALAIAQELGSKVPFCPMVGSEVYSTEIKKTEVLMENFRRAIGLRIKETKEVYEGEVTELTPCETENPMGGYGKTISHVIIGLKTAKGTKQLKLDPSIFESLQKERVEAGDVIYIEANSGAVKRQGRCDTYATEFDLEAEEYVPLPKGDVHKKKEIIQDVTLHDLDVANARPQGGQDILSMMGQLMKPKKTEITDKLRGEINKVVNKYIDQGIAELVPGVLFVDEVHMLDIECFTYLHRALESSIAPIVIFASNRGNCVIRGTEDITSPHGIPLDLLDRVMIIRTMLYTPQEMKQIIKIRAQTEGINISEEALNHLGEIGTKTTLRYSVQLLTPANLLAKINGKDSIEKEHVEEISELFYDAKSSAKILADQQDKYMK

Legend:
TSSC4-GFP (human) = TSSC4-GFP (human) (UniProt Q9Y5U2); assay: affinity purification with mass spectrometry; SILAC-IP: HeLa Flp-In clones expressing GFP- or FLAG-tagged TSSC4 (medium label) against parental HeLa (light); GFP-Trap beads or M2 anti-FLAG agarose, 1.5 h at 4 °C; lysis buffer 20 mM HEPES pH 7.9, 100 mM KCl, 2 mM EDTA, 10% glycerol, 0.1% NP-40, 0.5% Triton X-100
TSSC4-FLAG (human) = TSSC4-FLAG (human) (UniProt Q9Y5U2); assay: as above

Row | Molecule | binding (TSSC4-GFP (human)) | binding (TSSC4-FLAG (human))
1 | RUVBL1 (from UniProt Q9Y265 1-456) | binds | binds
2 | ZNHIT2 (protein, UniProt Q9UHR6 1-403) MEPAGPCGFCPAGEVQPARYTCPRCNAPYCSLRCYRTHGTCAENFYRDQVLGELRGCSAPPSRLASALRRLRQQRETEDEPGEAGLSSGPAPGGLSGLWERLAPGEKAAFERLLSRGEAGRLLPPWRPWWWNRGAGPQLLEELDNAPGSDAAELELAPARTPPDSVKDASAAEPAAAERVLGDVPGACTPVVPTRIPAIVSLSRGPVSPLVRFQLPNVLFAYAHTLALYHGGDDALLSDFCATLLGVSGALGAQQVFASAEEALQAAAHVLEAGEHPPGPLGTRGAMHEVARILLGEGPTNQKGYTLAALGDLAQTLGRARKQAVAREERDHLYRARKKCQFLLAWTNENEAALTPLALDCARAHQAHAVVAEEVAALTGELERLWGGPVPPAPRTLIEELPS | binds | binds
3 | EAPP (protein, UniProt Q56P03 1-285) MNRLPDDYDPYAVEEPSDEEPALSSSEDEVDVLLHGTPDQKRKLIRECLTGESESSSEDEFEKEMEAELNSTMKTMEDKLSSLGTGSSSGNGKVATAPTRYYDDIYFDSDSEDEDRAVQVTKKKKKKQHKIPTNDELLYDPEKDNRDQAWVDAQRRGYHGLGPQRSRQQQPVPNSDAVLNCPACMTTLCLDCQRHESYKTQYRAMFVMNCSINKEEVLRYKASENRKKRRVHKKMRSNREDAAEKAETDVEEIYHPVMCTECSTEVAVYDKDEVFHFFNVLASHS | binds | binds

Results are given in words; binding and its absence hold for the method and conditions named. Binding seen in cells or lysates may run through a third protein. A yes stands for co-enrichment or nearness to the bait. Other partners may have been found.
